This note sets out measurements from patent US9815851B2, “Pyrrolo carboxamides as modulators of orphan nuclear receptor RAR-related orphan receptor-gamma (RORγ, NR1F3) activity and for the treatment of chronic inflammatory and autoimmune diseases” (PHENEX PHARMACEUTICALS AG, priority 2011, dated 2017).

By UniProt entry, the sequences of proteins in these tests, tags left out. Residues count along the entry.
UniProt P51449, whole entry: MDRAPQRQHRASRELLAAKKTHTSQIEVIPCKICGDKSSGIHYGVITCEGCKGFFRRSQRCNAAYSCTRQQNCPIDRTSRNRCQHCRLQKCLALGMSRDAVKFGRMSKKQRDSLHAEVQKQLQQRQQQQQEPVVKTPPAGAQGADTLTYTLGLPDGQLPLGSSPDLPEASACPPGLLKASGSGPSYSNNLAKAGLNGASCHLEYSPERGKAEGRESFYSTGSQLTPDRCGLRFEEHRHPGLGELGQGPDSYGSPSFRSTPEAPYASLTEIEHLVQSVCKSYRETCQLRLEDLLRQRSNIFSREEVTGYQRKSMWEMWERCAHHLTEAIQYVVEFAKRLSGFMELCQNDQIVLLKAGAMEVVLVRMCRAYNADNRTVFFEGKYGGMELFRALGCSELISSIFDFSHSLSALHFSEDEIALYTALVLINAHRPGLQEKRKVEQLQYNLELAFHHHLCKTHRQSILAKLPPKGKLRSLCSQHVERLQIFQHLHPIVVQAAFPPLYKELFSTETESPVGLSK
UniProt P51449, 269-508 limits assumed: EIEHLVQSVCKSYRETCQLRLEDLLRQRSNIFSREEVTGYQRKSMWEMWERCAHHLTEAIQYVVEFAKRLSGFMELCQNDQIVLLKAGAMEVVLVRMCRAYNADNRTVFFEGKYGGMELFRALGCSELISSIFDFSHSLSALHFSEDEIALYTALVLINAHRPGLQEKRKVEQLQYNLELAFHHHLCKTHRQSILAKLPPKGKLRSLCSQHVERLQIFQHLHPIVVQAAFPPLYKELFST

Each structure is given as a SMILES string. “And” between values parts separate entries of the source, which are not always exact repeats. Equal values may be shown once. The match of structure and compound is tentative.

The target in test [1] is RORγ ligand binding domain (LBD) (Homo sapiens, UniProt P51449). The experiment in a line: TR-FRET Activity Assay (ligand sensing, RORγ-LBD / coactivator peptide interaction, LANCE). In kind it is biochemical. The settings on record: first value of the cell FRET/FF/REN.
In another test the target is RORγ (UniProt P51449). As to the kind of experiment: RORγ Gal4 Reporter Gene Assay in 293T cells (firefly and renilla luciferase). The format is cell-based, human. On the technique in general: In a reporter assay the amount or activity of a reporter protein is the signal.

Take `Cc1c(C(=O)NCC(C)(C)O)cc(-c2cc(S(=O)(=O)N3CCCCC3)c3ccccn23)n1CC1CCCCC1`: the “pIC50 (FRET)” value in test [1] is 5.3 and 5.6. In addition, the “pIC50 (FF)” value against RORγ (second value of the cell, firefly luciferase) is 6.8 and 6.7. The “pIC50 (REN)” value on RORγ (third value of the cell, renilla normalised luciferase) was 6.9 and 6.8.
